Test results reported in article PMC4016012, “Successful Conversion of the Bacillus subtilis BirA Group II Biotin Protein Ligase into a Group I Ligase” (PLoS ONE, 2014).
Results are given in words; binding and its absence hold for the method and conditions named. Tags and fused reporters may be left off the sequences shown.

Target: B. subtilis N-terminally hexahistidine-tagged BirA (Bacillus subtilis) (UniProt P0CI75)
Test: condition: only without biotin and ATP (BirA 30 µM); cross-linking; purified BirA 30 µM in 50 mM HEPES pH 7.5, 500 mM NaCl, 0.1 mM TCEP, 5% glycerol; without biotin and ATP, room temperature 30 min; EGS 0.125-0.5 mM, room temperature 30 min; SDS-PAGE on 4-20% gels; both purified

- binding: no binding
B1: B. subtilis N-terminally hexahistidine-tagged BirA (enzyme, Bacillus subtilis, UniProt P0CI75 1-325, looked up)
chain: MRSTLRKDLIELFSQAGNEFISGQKISDALGCSRTAVWKHIEELRKEGYEVEAVRRKGYRLIKKPGKLSESEIRFGLKTEVMGQHLIYHDVLSSTQKTAHELANNNAPEGTLVVADKQTAGRGRMSRVWHSQEGNGVWMSLILRPDIPLQKTPQLTLLAAVAVVQGIEEAAGIQTDIKWPNDILINGKKTVGILTEMQAEEDRVRSVIIGIGINVNQQPNDFPDELKDIATSLSQAAGEKIDRAGVIQHILLCFEKRYRDYMTHGFTPIKLLWESYALGIGTNMRARTLNGTFYGKALGIDDEGVLLLETNEGIKKIYSADIELG
notes: 325 residues by the names of the constructs (64-325 etc.); no step that removes the tag is described; The vector is pET19b, whose own tag may be longer than six histidines and is followed by a linker (surmise); also called wild type BirA; B. subtilis BirA; source: E. coli BL21 (λ DE3) with pSKH001, purified (Ni NTA)
